These are yes or no findings as the source states them, for the method shown. Binding seen in cells or lysates may run through a third protein. Some results given as binding are weak or reduced against the parent protein; the word gives no strength.

Sequences of proteins named here, by UniProt entry; tags and fusion partners are left off. Residues count along the entry.
UniProt P10809, residues 27-573: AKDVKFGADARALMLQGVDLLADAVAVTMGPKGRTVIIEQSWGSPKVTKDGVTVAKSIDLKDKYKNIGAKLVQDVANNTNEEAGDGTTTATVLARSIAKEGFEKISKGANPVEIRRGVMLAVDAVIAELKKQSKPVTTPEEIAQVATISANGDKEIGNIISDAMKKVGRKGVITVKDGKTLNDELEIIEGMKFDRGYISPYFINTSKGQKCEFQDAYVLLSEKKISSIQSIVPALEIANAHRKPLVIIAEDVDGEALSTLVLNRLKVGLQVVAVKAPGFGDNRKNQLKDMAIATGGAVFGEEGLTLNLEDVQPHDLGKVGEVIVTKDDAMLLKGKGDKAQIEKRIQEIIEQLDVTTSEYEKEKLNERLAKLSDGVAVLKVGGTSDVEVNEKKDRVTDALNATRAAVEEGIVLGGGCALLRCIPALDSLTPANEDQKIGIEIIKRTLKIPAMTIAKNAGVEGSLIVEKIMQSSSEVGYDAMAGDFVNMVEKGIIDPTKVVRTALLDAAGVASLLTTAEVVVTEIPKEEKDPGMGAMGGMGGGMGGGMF

In experiment [1] the target is T1, Biotin-P17 (synthetic peptide P17, 39 residues, N-terminally biotinylated).
T1 sequence (peptide, biotin on the N-terminus): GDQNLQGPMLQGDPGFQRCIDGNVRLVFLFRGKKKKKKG
The experiment in a line: pull-down; 'P17/P17S+beads': P17- or P17S-conjugated streptavidin magnetic beads incubated with precleared RIFA lysate of TRAIL-treated Jurkat cells; binding buffer 0.5 M NaCl, 20 mM Tris-HCl, 1 mM EDTA, pH 7.5, on ice 4 h; western blot for HSP60 and Coomassie staining; only the target purified. (In general: A western blot detects proteins with antibodies after separation by electrophoresis.)

Experiment [2] deals with T2, Biotin-P17S (scrambled P17, N-terminally biotinylated).
T2 sequence (peptide, biotin on the N-terminus): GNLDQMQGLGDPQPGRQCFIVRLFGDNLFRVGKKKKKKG
The experiment is described as above.

The target in experiment [3] is T1, Biotin-P17 (synthetic peptide P17, 39 residues, N-terminally biotinylated). The experiment in a line: pull-down; 'pre-P17/P17S+beads': TRAIL-treated Jurkat cells pre-incubated with biotin-P17 or P17S (10 uM, 30 min, 37 C), washed, lysed in RIFA buffer; complex caught with streptavidin magnetic beads in binding buffer (0.5 M NaCl, 20 mM Tris-HCl, 1 mM EDTA, pH 7.5) on ice 4 h; western blot for HSP60 and Coomassie staining; only the target purified.

In experiment [4] the target is T2, Biotin-P17S (scrambled P17, N-terminally biotinylated). The experiment is described as above.

For the substance “heat shock protein 60 (HSP60) (from UniProt P10809 27-573)”, the binding result in experiment [1] is “binds”; in experiment [2], “no binding”; in experiment [3], “binds”; in experiment [4] it was “no binding (tested: 10 uM)”.
